Laboratory results published in paper PMC9263130.

Amino acid sequences for entries named in this document (tags omitted). A change or cut given only in a name is not applied to a line headed by its entry.
UniProt O60674: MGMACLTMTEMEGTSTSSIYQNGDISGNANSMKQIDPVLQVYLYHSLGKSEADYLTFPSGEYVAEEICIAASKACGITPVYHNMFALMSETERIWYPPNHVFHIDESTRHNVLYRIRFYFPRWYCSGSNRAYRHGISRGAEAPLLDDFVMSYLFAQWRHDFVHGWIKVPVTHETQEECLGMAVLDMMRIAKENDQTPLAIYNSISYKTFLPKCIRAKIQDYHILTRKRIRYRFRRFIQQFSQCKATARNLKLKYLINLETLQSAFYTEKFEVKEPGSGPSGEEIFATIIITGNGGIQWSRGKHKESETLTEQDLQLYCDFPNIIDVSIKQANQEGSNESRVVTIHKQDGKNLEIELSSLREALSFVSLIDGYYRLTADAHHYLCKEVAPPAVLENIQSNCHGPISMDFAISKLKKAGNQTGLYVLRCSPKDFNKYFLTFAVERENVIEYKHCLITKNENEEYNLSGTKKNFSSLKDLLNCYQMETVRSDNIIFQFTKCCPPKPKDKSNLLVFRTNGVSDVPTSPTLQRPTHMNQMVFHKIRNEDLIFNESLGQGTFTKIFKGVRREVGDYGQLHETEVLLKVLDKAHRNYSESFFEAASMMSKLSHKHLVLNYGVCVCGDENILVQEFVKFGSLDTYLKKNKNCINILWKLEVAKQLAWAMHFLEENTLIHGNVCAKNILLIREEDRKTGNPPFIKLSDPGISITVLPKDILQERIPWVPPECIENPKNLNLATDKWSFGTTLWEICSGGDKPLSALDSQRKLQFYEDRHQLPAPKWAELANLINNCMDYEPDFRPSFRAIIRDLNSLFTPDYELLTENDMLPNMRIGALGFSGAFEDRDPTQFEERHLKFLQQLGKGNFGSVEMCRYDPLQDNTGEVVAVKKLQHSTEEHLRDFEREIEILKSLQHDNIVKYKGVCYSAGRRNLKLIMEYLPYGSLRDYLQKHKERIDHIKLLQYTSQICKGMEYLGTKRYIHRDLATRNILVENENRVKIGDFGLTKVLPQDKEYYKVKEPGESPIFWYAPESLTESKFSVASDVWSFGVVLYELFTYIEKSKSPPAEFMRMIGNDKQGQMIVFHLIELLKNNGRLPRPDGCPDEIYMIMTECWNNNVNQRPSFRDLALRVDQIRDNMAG

Target: JAK2 (endogenous in HEL cells, which harbour the JAK2V617F mutation) (human (endogenous in HEL)) (UniProt O60674)
Test: co-IP; HEL cells with 3 × Flag-CHST15 wild type or mutant; RIPA lysate, precleared with Protein A/G PLUS-agarose and control IgG; anti-JAK2 or anti-Flag-CHST15 antibody overnight at 4 °C; immunoblot

**Q.** With “3 × Flag-tagged mutant CHST15 (c.1367delG, p.Arg456fs) (from UniProt Q7LFX5-2)” as the substance, how does the binding read?
**A.** binds

These are yes or no findings as the source states them, for the method shown. In cells and extracts the contact can be indirect. Binding can be weak; no strength is given.
